Measured data: PubChem BioAssay AID1259405 (NCATS, 2018)
Aim: 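Silenced genes that increase secreted GFP made by CHO cells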 (primary screen). System: Chinese hamster CHO-K1 ovary cells with stable secreted eGFP expression. Reagent: single siRNA against mouse genes, 0.8 pmol siRNA per well (2 µl of 400 nM stock). Timing: 3 days. Measured: 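Per-well intracellular GFP measured by laser scanning cytometry, plus viability from ATP luminescence, each relative to plate median of non-targeting control wells, in %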. Reading the numbers: GFP, % of control: higher = more GFP per well, higher productivity; viability (ATP), % of control: higher = more viable cells (more ATP). Rule for the call: 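Called active when intracellular GFP, relative to negative control, is at or above 120%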.
Shown is one part, drawn at random, of about 50,000 reagents tested. About 4,000 of them (8%) were called active. 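Mouse siRNA library applied to hamster cells; one well for each siRNA.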 The numbers tell different reagents against one gene apart.

| gene knocked down | reagent | GFP, % of control | viability (ATP), % of control | activity call |
| --- | --- | --- | --- | --- |
| Ank3 (ankyrin 3, epithelial) | 1 | 59 | 56.1 | inactive |
| Ank3 (ankyrin 3, epithelial) | 2 | 57.7 | 57.7 | inactive |
| Ank3 (ankyrin 3, epithelial) | 3 | 69.5 | 86.6 | inactive |
| Tomm6 (translocase of outer mitochondrial membrane 6) | 1 | 116 | 80.8 | inactive |
| Tomm6 (translocase of outer mitochondrial membrane 6) | 2 | 150 | 98.3 | active |
| Tomm6 (translocase of outer mitochondrial membrane 6) | 3 | 76.2 | 80.2 | inactive |
| Lyve1 (lymphatic vessel endothelial hyaluronan receptor 1) | 1 | 75.3 | 86.4 | inactive |
| Lyve1 (lymphatic vessel endothelial hyaluronan receptor 1) | 2 | 105 | 88.7 | inactive |
| Lyve1 (lymphatic vessel endothelial hyaluronan receptor 1) | 3 | 79.3 | 93.1 | inactive |
| Ccdc187 (coiled-coil domain containing 187) | 1 | 103 | 119 | inactive |
| Ccdc187 (coiled-coil domain containing 187) | 2 | 111 | 37 | inactive |
| Ccdc187 (coiled-coil domain containing 187) | 3 | 74.4 | 54.9 | inactive |
| Casp4 (caspase 4, apoptosis-related cysteine peptidase) | 1 | 58.6 | 82.7 | inactive |
| Casp4 (caspase 4, apoptosis-related cysteine peptidase) | 2 | 75.8 | 65.3 | inactive |
| Casp4 (caspase 4, apoptosis-related cysteine peptidase) | 3 | 55.7 | 69 | inactive |
| Omp (olfactory marker protein) | 1 | 47.2 | 59.9 | inactive |
| Omp (olfactory marker protein) | 2 | 52 | 50 | inactive |
| Omp (olfactory marker protein) | 3 | 68.5 | 63.6 | inactive |
| Fam32a (family with sequence similarity 32, member A) | 1 | 63.2 | 69.7 | inactive |
| Fam32a (family with sequence similarity 32, member A) | 2 | 23.8 | 21.3 | inactive |
| Fam32a (family with sequence similarity 32, member A) | 3 | 46.8 | 50.1 | inactive |
| Or2ak7 (olfactory receptor family 2 subfamily AK member 7) | 1 | 64.2 | 65.2 | inactive |
| Or2ak7 (olfactory receptor family 2 subfamily AK member 7) | 2 | 93.1 | 61.8 | inactive |
| Or2ak7 (olfactory receptor family 2 subfamily AK member 7) | 3 | 109 | 48.6 | inactive |
| Gpr83 (G protein-coupled receptor 83) | 1 | 68.5 | 76.4 | inactive |
| Gpr83 (G protein-coupled receptor 83) | 2 | 65.2 | 73.5 | inactive |
| Gpr83 (G protein-coupled receptor 83) | 3 | 77.8 | 79.8 | inactive |
| Hmgcs2 (3-hydroxy-3-methylglutaryl-Coenzyme A synthase 2) | 1 | 54.9 | 73.6 | inactive |
| Hmgcs2 (3-hydroxy-3-methylglutaryl-Coenzyme A synthase 2) | 2 | 57.7 | 62.2 | inactive |
| Hmgcs2 (3-hydroxy-3-methylglutaryl-Coenzyme A synthase 2) | 3 | 83.2 | 79.6 | inactive |
| Cdc42ep5 (CDC42 effector protein 5) | 1 | 74.2 | 88.9 | inactive |
| Cdc42ep5 (CDC42 effector protein 5) | 2 | 104 | 112 | inactive |
| Cdc42ep5 (CDC42 effector protein 5) | 3 | 89.6 | 93.2 | inactive |
| Or5t17 (olfactory receptor family 5 subfamily T member 17) | 1 | 99.7 | 74 | inactive |
| Or5t17 (olfactory receptor family 5 subfamily T member 17) | 2 | 66.5 | 81 | inactive |
| Or5t17 (olfactory receptor family 5 subfamily T member 17) | 3 | 60.6 | 94.2 | inactive |
| Mybpc3 (myosin binding protein C, cardiac) | 1 | 45.2 | 120 | inactive |
| Mybpc3 (myosin binding protein C, cardiac) | 2 | 128 | 74.9 | active |
| Rgs17 (regulator of G-protein signaling 17) | 1 | 94.9 | 81.1 | inactive |
| Rgs17 (regulator of G-protein signaling 17) | 2 | 167 | 101 | active |
| Rgs17 (regulator of G-protein signaling 17) | 3 | 32 | 48.4 | inactive |
| Rmnd5b (required for meiotic nuclear division 5 homolog B) | 1 | 69.7 | 70.1 | inactive |
| Rmnd5b (required for meiotic nuclear division 5 homolog B) | 2 | 97.4 | 86.5 | inactive |
| Rmnd5b (required for meiotic nuclear division 5 homolog B) | 3 | 119 | 65.3 | inactive |
| Rcsd1 (RCSD domain containing 1) | 1 | 110 | 100 | inactive |
| Rcsd1 (RCSD domain containing 1) | 2 | 53 | 69.5 | inactive |
| Rcsd1 (RCSD domain containing 1) | 3 | 27.3 | 59 | inactive |
| Or5m12 (olfactory receptor family 5 subfamily M member 12) | 1 | 104 | 79.5 | inactive |
| Or5m12 (olfactory receptor family 5 subfamily M member 12) | 2 | 87.5 | 66.8 | inactive |
| Or5m12 (olfactory receptor family 5 subfamily M member 12) | 3 | 18 | 14 | inactive |
| Bmp8b (bone morphogenetic protein 8b) | 1 | 48.5 | 52.1 | inactive |
| Bmp8b (bone morphogenetic protein 8b) | 2 | 37.9 | 42.5 | inactive |
| Bmp8b (bone morphogenetic protein 8b) | 3 | 60.2 | 64 | inactive |
| Syne3 (spectrin repeat containing, nuclear envelope family member 3) | 1 | 93.2 | 120 | inactive |
| Syne3 (spectrin repeat containing, nuclear envelope family member 3) | 2 | 127 | 115 | active |
| Syne3 (spectrin repeat containing, nuclear envelope family member 3) | 3 | 77.7 | 79.1 | inactive |
| Scamp4 | 1 | 114 | 84.2 | inactive |
| Scamp4 | 2 | 66.6 | 89 | inactive |
| Scamp4 | 3 | 59.2 | 69.5 | inactive |
| Ecrg4 (ECRG4 augurin precursor) | 1 | 101 | 79.9 | inactive |
| Ecrg4 (ECRG4 augurin precursor) | 2 | 52.3 | 67.2 | inactive |
| Ecrg4 (ECRG4 augurin precursor) | 3 | 109 | 56.6 | inactive |
| F2rl1 (F2R like trypsin receptor 1) | 1 | 78.9 | 63.4 | inactive |
| F2rl1 (F2R like trypsin receptor 1) | 2 | 77.7 | 76.7 | inactive |
| F2rl1 (F2R like trypsin receptor 1) | 3 | 73 | 84 | inactive |
| Ptn (pleiotrophin) | 1 | 0.00754 | 113 | inactive |
| Ptn (pleiotrophin) | 2 | 84.7 | 79.7 | inactive |
| Smco1 (single-pass membrane protein with coiled-coil domains 1) | 1 | 43.6 | 63.1 | inactive |
| Smco1 (single-pass membrane protein with coiled-coil domains 1) | 2 | 97.1 | 63.9 | inactive |
| Smco1 (single-pass membrane protein with coiled-coil domains 1) | 3 | 101 | 65.4 | inactive |
| Cbx8 (chromobox 8) | 1 | 75.3 | 71.2 | inactive |
| Cbx8 (chromobox 8) | 2 | 71.4 | 81.5 | inactive |
| Cbx8 (chromobox 8) | 3 | 74.1 | 57.9 | inactive |
| Cdc42ep2 (CDC42 effector protein 2) | 1 | 78.8 | 89.6 | inactive |
| Cdc42ep2 (CDC42 effector protein 2) | 2 | 92.3 | 84.2 | inactive |
| Cdc42ep2 (CDC42 effector protein 2) | 3 | 93.6 | 102 | inactive |
| Rab10os (RAB10, member RAS oncogene family, opposite strand) | 1 | 103 | 112 | inactive |
| Rab10os (RAB10, member RAS oncogene family, opposite strand) | 2 | 74 | 90.2 | inactive |
| Rab10os (RAB10, member RAS oncogene family, opposite strand) | 3 | 95.4 | 102 | inactive |
| Bloc1s1 (biogenesis of lysosomal organelles complex-1, subunit 1) | 1 | 87.4 | 70.6 | inactive |
| Bloc1s1 (biogenesis of lysosomal organelles complex-1, subunit 1) | 2 | 137 | 44.9 | active |
| Bloc1s1 (biogenesis of lysosomal organelles complex-1, subunit 1) | 3 | 83.8 | 98.6 | inactive |
| Slc41a1 | 1 | 108 | 88.5 | inactive |
| Slc41a1 | 2 | 49.1 | 43.1 | inactive |
| Slc41a1 | 3 | 101 | 73.1 | inactive |

An excerpt from above, reduced to “viability (ATP), % of control”.
Or2ak7 (olfactory receptor family 2 subfamily AK member 7) #1: 65.2
Or2ak7 (olfactory receptor family 2 subfamily AK member 7) #2: 61.8
Or2ak7 (olfactory receptor family 2 subfamily AK member 7) #3: 48.6
Gpr83 (G protein-coupled receptor 83) #1: 76.4
Gpr83 (G protein-coupled receptor 83) #2: 73.5
Gpr83 (G protein-coupled receptor 83) #3: 79.8
